In patent US20160090556A1, “PRODUCTS COMPRISING MALODOR REDUCTION MATERIALS” (The Procter & Gamble Company, priority 2014, published 2016):

Test: Melamine formaldehyde PMC leakage
Conditions: for Melamine formaldehyde PMC leakage (Comment Code J): class code letter within Comment Code; for Comment Code: Melamine formaldehyde PMC leakage: code letter J

Compound | Melamine formaldehyde PMC leakage (Comment Code J) | Comment Code: Melamine formaldehyde PMC leakage
CCCCCCOC(=O)c1ccccc1 [Material 271] | J (Melamine formaldehyde PMC leakage less than or equal to 5%) | –
CCCCCCOC(=O)C(C)CC (stereo not drawn) [Material 273] | – | J (Melamine formaldehyde PMC leakage less than or equal to 5%)
CC=C(C)C(=O)OCCC=CCC [Material 274] | J (Melamine formaldehyde PMC leakage less than or equal to 5%) | –
CCCCCCOC(=O)c1ccco1 [Material 275] | – | J (Melamine formaldehyde PMC leakage less than or equal to 5%)
CCCCCCCCCCCCCCCC(=O)OCC=C(C)CCC=C(C)C [Material 276] | J (Melamine formaldehyde PMC leakage less than or equal to 5%) | –
O=C1CCCCCCCCCCCCCCCO1 [Material 277] | J (Melamine formaldehyde PMC leakage less than or equal to 5%) | –
CC(=O)OC1CC2CC1C1CC=CC21 (stereo not drawn) [Material 281] | J (Melamine formaldehyde PMC leakage less than or equal to 5%) | J (Melamine formaldehyde PMC leakage less than or equal to 5%)
CCC(=O)OCC(C)(C)OC(C)C1CCCC(C)(C)C1 (stereo not drawn) [Material 285] | J (Melamine formaldehyde PMC leakage less than or equal to 5%) | –
CCOC(OCC)c1ccc2c(c1)OCO2 [Material 286] | J (Melamine formaldehyde PMC leakage less than or equal to 5%) | –
CC(C=O)Cc1ccc2c(c1)OCO2 (stereo not drawn) [Material 288] | J (Melamine formaldehyde PMC leakage less than or equal to 5%) | –
O=C1CCCCCCCCCC/C=C/CCO1 [Material 289] | J (Melamine formaldehyde PMC leakage less than or equal to 5%) | –
CC1CCC(C(C)(C)O)CC2=C1CCC2C (stereo not drawn) [Material 292] | J (Melamine formaldehyde PMC leakage less than or equal to 5%) | –
CCC(=O)CCC1C(C)=CCCC1(C)C (stereo not drawn) [Material 293] | J (Melamine formaldehyde PMC leakage less than or equal to 5%) | –
CC1=CCC(=C(C)C)CCC(C)=CCC1 [Material 295] | J (Melamine formaldehyde PMC leakage less than or equal to 5%) | –
C=C1C=CC(C(C)C)CCC(C)=CCC1 (stereo not drawn) [Material 296] | J (Melamine formaldehyde PMC leakage less than or equal to 5%) | –
CC(C)=CCCC(C)=CCOC(=O)Cc1ccccc1 [Material 300] | J (Melamine formaldehyde PMC leakage less than or equal to 5%) | –
C=CC(C)(O)CCC=C(C)CCC=C(C)CCC=C(C)C (stereo not drawn) [Material 303] | J (Melamine formaldehyde PMC leakage less than or equal to 5%) | –
CC(C)=CCC/C(C)=C/COC=O [Material 306] | – | J (Melamine formaldehyde PMC leakage less than or equal to 5%)
CC(C)=CCCC(C)=CCC1CCCC1=O (stereo not drawn) [Material 307] | J (Melamine formaldehyde PMC leakage less than or equal to 5%) | –
CCCCCCCC(=O)OC/C=C(\C)CCC=C(C)C [Material 308] | – | J (Melamine formaldehyde PMC leakage less than or equal to 5%)
CC(C)=CCC/C(C)=C/COC(=O)c1ccccc1 [Material 310] | – | J (Melamine formaldehyde PMC leakage less than or equal to 5%)

Compound | Melamine formaldehyde PMC leakage (Comment Code J) | Comment Code: Melamine formaldehyde PMC leakage
CCC(C)C(=O)N(C)c1ccccc1 (stereo not drawn) [Material 314] | – | J (Melamine formaldehyde PMC leakage less than or equal to 5%)
CC(=O)OC1(C)CCC(=C(C)C)CC1 (stereo not drawn) [Material 317] | J (Melamine formaldehyde PMC leakage less than or equal to 5%) | –
C=C1CCC(C(C)C)C2C=C(C)CCC12 (stereo not drawn) [Material 322] | J (Melamine formaldehyde PMC leakage less than or equal to 5%) | –
CC1=CC2C(CC1)C(C)=CCCC2(C)C (stereo not drawn) [Material 325] | J (Melamine formaldehyde PMC leakage less than or equal to 5%) | –
CC1=C2CC(C(C)(C)O)CCC2(C)CCC1 (stereo not drawn) [Material 329] | J (Melamine formaldehyde PMC leakage less than or equal to 5%) | J (Melamine formaldehyde PMC leakage less than or equal to 5%)
CCCCCCCCC1CCC(=O)O1 (stereo not drawn) [Material 330] | J (Melamine formaldehyde PMC leakage less than or equal to 5%) | –
C=C1CCC(C(C)C)C2C=C(C)CCC12 (stereo not drawn) [Material 333] | J (Melamine formaldehyde PMC leakage less than or equal to 5%) | –
C=CCCC(=O)C1CCCC(C)(C)C1 (stereo not drawn) [Material 334] | J (Melamine formaldehyde PMC leakage less than or equal to 5%) | –
CC1COCc2cc3c(cc21)C(C)(C)C(C)C3(C)C (stereo not drawn) [Material 335] | J (Melamine formaldehyde PMC leakage less than or equal to 5%) | J (Melamine formaldehyde PMC leakage less than or equal to 5%)
CCCCCCCC(=O)OCc1ccco1 [Material 336] | J (Melamine formaldehyde PMC leakage less than or equal to 5%) | –
CCCCCC(=O)OCc1ccco1 [Material 338] | J (Melamine formaldehyde PMC leakage less than or equal to 5%) | –
CCCCCCC(=O)OCc1ccco1 [Material 339] | J (Melamine formaldehyde PMC leakage less than or equal to 5%) | –
CCCCCCCCC(C)C#N (stereo not drawn) [Material 342] | J (Melamine formaldehyde PMC leakage less than or equal to 5%) | –
CCC(=O)OC1CC2C3C=CCC3C1C2(C)C (stereo not drawn) [Material 343] | J (Melamine formaldehyde PMC leakage less than or equal to 5%) | J (Melamine formaldehyde PMC leakage less than or equal to 5%)
CCOC(=O)C1CCC(C(=O)OCC)CC1 (stereo not drawn) [Material 347] | J (Melamine formaldehyde PMC leakage less than or equal to 5%) | –
CC1CCC(C(C)C)C2(C1)OCC(CO)O2 (stereo not drawn) [Material 349] | J (Melamine formaldehyde PMC leakage less than or equal to 5%) | –
C=CCCCCCCCCC#N [Material 352] | J (Melamine formaldehyde PMC leakage less than or equal to 5%) | –
C/C=C1/CC2CC1C1CCC(=O)OC21 (stereo not drawn) [Material 353] | J (Melamine formaldehyde PMC leakage less than or equal to 5%) | J (Melamine formaldehyde PMC leakage less than or equal to 5%)
CCc1ccccc1CC(C)(C)C=O [Material 354] | – | J (Melamine formaldehyde PMC leakage less than or equal to 5%)
CCOC(=O)OC1CCCCC1C(C)(C)C (stereo not drawn) [Material 355] | – | J (Melamine formaldehyde PMC leakage less than or equal to 5%)
CCc1ccccc1CC(C)(C)C=O [Material 356] | J (Melamine formaldehyde PMC leakage less than or equal to 5%) | –

Compound | Melamine formaldehyde PMC leakage (Comment Code J) | Comment Code: Melamine formaldehyde PMC leakage
C=CC(C)CC/C=C(\C)CCC=O (stereo not drawn) [Material 358] | J (Melamine formaldehyde PMC leakage less than or equal to 5%) | –
CC(O)C(C)/C=C1\C[C@H]2C[C@@H]1[C@@H]1C=CC[C@H]21 (stereo partly drawn) [Material 359] | J (Melamine formaldehyde PMC leakage less than or equal to 5%) | J (Melamine formaldehyde PMC leakage less than or equal to 5%)
CC(=O)OC1CC2C3C=CCC3C1C2(C)C (stereo not drawn) [Material 360] | J (Melamine formaldehyde PMC leakage less than or equal to 5%) | J (Melamine formaldehyde PMC leakage less than or equal to 5%)
CCc1ccc(CC(C)(C)C#N)cc1 [Material 361] | J (Melamine formaldehyde PMC leakage less than or equal to 5%) | –
CCCCCCCC1CCCC1=O (stereo not drawn) [Material 362] | J (Melamine formaldehyde PMC leakage less than or equal to 5%) | –
CCOC(C)OC1CCCCCCCCCCC1 (stereo not drawn) [Material 363] | J (Melamine formaldehyde PMC leakage less than or equal to 5%) | –
CC(=O)OCC=C(C)CCC=C(C)CCC=C(C)C [Material 368] | J (Melamine formaldehyde PMC leakage less than or equal to 5%) | –
CC(C)=CCCC(C)=CCCC(C)=CCO [Material 369] | J (Melamine formaldehyde PMC leakage less than or equal to 5%) | –
O=C1CCCCCCCCCCCCCCO1 [Material 370] | J (Melamine formaldehyde PMC leakage less than or equal to 5%) | –
O=C1CCC=CCCCCCCCCCC1 [Material 371] | J (Melamine formaldehyde PMC leakage less than or equal to 5%) | –
O=C1CCC=CCCCCCCCCCC1 [Material 372] | J (Melamine formaldehyde PMC leakage less than or equal to 5%) | –
C=C1CCOC(c2ccc(O)c(OC)c2)C1 (stereo not drawn) [Material 373] | J (Melamine formaldehyde PMC leakage less than or equal to 5%) | –
C=CCc1ccc(OC(C)=O)c(OC)c1 [Material 374] | J (Melamine formaldehyde PMC leakage less than or equal to 5%) | –
CCOC(=O)C1OC1(C)c1ccccc1 (stereo not drawn) [Material 377] | J (Melamine formaldehyde PMC leakage less than or equal to 5%) | –
O=C1CCCCCCCCCCCC(=O)OCCO1 [Material 378] | J (Melamine formaldehyde PMC leakage less than or equal to 5%) | –
CC(=O)O.CCOc1cc(C=O)ccc1O [Material 379] | – | J (Melamine formaldehyde PMC leakage less than or equal to 5%)
C=CCCCCCCCCC(=O)OCC [Material 381] | J (Melamine formaldehyde PMC leakage less than or equal to 5%) | –
CCCCCCCCCCCCCCCC(=O)OCC [Material 385] | J (Melamine formaldehyde PMC leakage less than or equal to 5%) | –
CCCCCCCCC(=O)OCC [Material 386] | J (Melamine formaldehyde PMC leakage less than or equal to 5%) | –
CCCCCCCC(=O)OCC [Material 387] | – | J (Melamine formaldehyde PMC leakage less than or equal to 5%)
